# Laboratory results taken from PubChem BioAssay AID1487 (National Center for Advancing Translational Sciences (NCATS), 2009).
# The other results are listed elsewhere or left out. These are further read-outs of the screen, such as a control signal, another cell line or another target. No call is given for them. Most of these compounds were active or inconclusive in the main read-out, so they are no random draw. The note in brackets gives the kind of curve behind each potency; many fits are weak.
# Test: qHTS Assay for Modulators of Lamin A Splicing
# Conditions: HeLa LMNA splicing GFP/RFP minigene ratio, 48 h
# In short: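 S3 HeLa stable clones carrying a lamin A-EGFP splicing minigene plus DsRed2 were seeded at 600 cells/well in Opti-MEM with 2% FBS, pin-dosed and incubated 48 h at 37°C. Acumen cytometry (488 nm) gave the GFP/RFP total-intensity ratio.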
# [1] = measured here: GFP splicing reporter channel
# [2] = measured here: RFP viability control channel
Compound,AC50 [1],AC50 [2]
O=C(CCN1CCOCC1)N/N=C/c1cc(Br)cc(Br)c1O,"15.8 µM [falling, partial curve, poor fit]",–
COc1ccccc1-c1nccc(NCc2ccccc2)n1,"5.62 µM [falling, partial curve, poor fit]",–
CCC(=O)N1CCc2cc(S(=O)(=O)NC(Cc3ccccc3)C(=O)O)ccc21 (stereo unspecified),–,"0.01 µM [falling, full curve]"
O=C(COC(=O)c1ccccc1C(=O)c1ccc(Cl)cc1)NCCc1ccccc1,–,"35.5 µM [rising, single point]"
Cc1ccc(S(=O)(=O)Nc2ccc3nc(-c4cccc(Cl)c4)oc3c2)cc1,–,"35.5 µM [falling, single point]"
O=C(Nc1nc2ccccc2s1)c1cc(-c2ccco2)nc2ccccc12,"35.5 µM [rising, single point]","35.5 µM [rising, single point]"
CC(=Nc1ccc(C)cc1C)c1sc2ccccc2c1O,"7.08 µM [rising, partial curve]",–
Cc1ccc(N(CC(C)C)S(=O)(=O)c2nnc(NC(=O)C(C)C)s2)cc1,"35.5 µM [falling, single point]",–
CCN(C(=O)[C@@H]1CCCN1C(=O)c1cccs1)c1nc2cc(Cl)ccc2s1,–,"14.1 µM [rising, partial curve]"
CN[C@H]1[C@@H](O)[C@@H](NC)[C@@H]2O[C@@]3(O)C(=O)C[C@@H](C)O[C@H]3O[C@H]2[C@H]1O,"3.16 µM [falling, single point]","10 µM [falling, single point]"
COc1ccc(-c2nc(NC(=O)c3cc(C(C)(C)C)nn3C)sc2C)cc1,"14.1 µM [rising, partial curve]","14.1 µM [rising, single point]"
O=C1N/C(=C\c2ccccc2)c2ccccc21,–,"12.6 µM [rising, single point]"
Cc1ccc(NC(=O)c2ccc(NCCCN3CCOCC3)c([N+](=O)[O-])c2)cc1Cl,–,"12.6 µM [rising, partial curve]"
O=C(Nc1nnc(Cc2c[nH]c3ccccc23)s1)c1ccc(Cl)cc1Cl,–,"25.1 µM [rising, partial curve]"
COc1ccc(-c2nc3sc(CCNS(=O)(=O)c4ccccc4)c(C)n3n2)cc1,–,"0.00891 µM [falling, full curve, poor fit]"
CCC(=O)Oc1ccc(C(=O)Nc2ccc3c(c2)C(=O)N(C2CCCCC2)C3=O)cc1,–,"14.1 µM [rising, single point]"
O=C(COc1cccc(C(F)(F)F)c1)Nc1ccc(S(=O)(=O)N2CCCC2)cc1,–,"22.4 µM [rising, single point]"
CCOC(=O)C1CCN(C(=O)c2c(C)oc3c2C(=O)c2ccccc2C3=O)CC1,–,"0.126 µM [rising, partial curve, poor fit]"
c1ccc(-c2ccc(-c3ccccn3)nn2)nc1,–,"22.4 µM [rising, single point]"
Cc1cc2oc(=O)cc(Cn3nnc(-c4ccc(Cl)cc4)n3)c2cc1C(C)C,–,"2.51 µM [rising, partial curve]"
COc1ccc(Br)cc1CNC(=O)CN1C(=O)c2cccnc2Oc2ccc(C)cc21,"11.2 µM [falling, partial curve]","14.1 µM [falling, single point]"
CCn1c(=O)c(C(=O)NCCN2CCCCC2)c(O)c2ccccc21,–,"5.01 µM [rising, full curve, poor fit]"
Cc1ccc2cccc(OCC(=O)Nc3ccc4c(c3)OCO4)c2n1,"20 µM [falling, partial curve, poor fit]",–
Cc1nnc(SCC(=O)c2c(N)n(C)c(=O)n(C)c2=O)[nH]c1=O,–,"1 µM [falling, full curve, poor fit]"
CSc1ccc(CCNC(=O)CCCn2c(=O)c3cccn3c3ccccc32)cc1,"25.1 µM [falling, single point]","35.5 µM [falling, single point]"
O=Cc1ccc(N2CCCC2)o1,"35.5 µM [rising, single point]",–
CCOCCOc1nc2c(c(=O)n(C)c(=O)n2C)n1CCc1ccccc1,–,"35.5 µM [rising, single point]"
O=C(Nc1ccccc1)N1CCN(c2nc3ccccc3s2)CC1,"35.5 µM [rising, single point]","31.6 µM [rising, single point]"
Cc1cc(N2CCN(S(=O)(=O)c3ccc(C)c(C)c3)CC2)c2ccccc2n1,"12.6 µM [rising, partial curve]","15.8 µM [rising, single point]"

# Rewritten tab-delimited: 2 of the compounds above.
Compound	AC50 [1]	AC50 [2]
CCC(=O)N1CCc2cc(S(=O)(=O)NC(Cc3ccccc3)C(=O)O)ccc21 (stereo unspecified)	–	0.01 µM [falling, full curve]
O=C(COC(=O)c1ccccc1C(=O)c1ccc(Cl)cc1)NCCc1ccccc1	–	35.5 µM [rising, single point]
